Assay results taken from the supplement of paper PMC10849652.
Some of the results follow.

Protein sequences, listed by entry. Tags and fused reporters are not part of them. Lines headed by an entry give the natural chain unless they say otherwise; changes in a name come on top.
UniProt P08238, whole entry, looked up: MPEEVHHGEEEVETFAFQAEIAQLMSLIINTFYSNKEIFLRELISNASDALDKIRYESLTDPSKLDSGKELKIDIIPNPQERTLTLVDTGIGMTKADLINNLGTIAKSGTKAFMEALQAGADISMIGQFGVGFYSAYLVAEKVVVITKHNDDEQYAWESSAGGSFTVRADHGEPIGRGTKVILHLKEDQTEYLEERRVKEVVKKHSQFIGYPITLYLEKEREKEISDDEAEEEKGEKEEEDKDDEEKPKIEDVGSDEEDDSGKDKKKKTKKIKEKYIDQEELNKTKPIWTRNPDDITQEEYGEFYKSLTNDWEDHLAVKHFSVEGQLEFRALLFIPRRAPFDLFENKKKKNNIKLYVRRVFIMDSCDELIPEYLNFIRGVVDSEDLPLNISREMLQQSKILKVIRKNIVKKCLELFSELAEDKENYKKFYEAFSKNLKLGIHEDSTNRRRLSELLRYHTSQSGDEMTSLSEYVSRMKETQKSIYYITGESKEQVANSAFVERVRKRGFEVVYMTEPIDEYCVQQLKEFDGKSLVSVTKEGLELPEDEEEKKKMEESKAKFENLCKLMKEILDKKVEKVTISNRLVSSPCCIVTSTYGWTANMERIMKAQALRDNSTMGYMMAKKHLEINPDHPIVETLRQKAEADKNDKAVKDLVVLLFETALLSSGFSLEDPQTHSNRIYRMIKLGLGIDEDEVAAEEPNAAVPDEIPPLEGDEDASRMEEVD
UniProt Q14103: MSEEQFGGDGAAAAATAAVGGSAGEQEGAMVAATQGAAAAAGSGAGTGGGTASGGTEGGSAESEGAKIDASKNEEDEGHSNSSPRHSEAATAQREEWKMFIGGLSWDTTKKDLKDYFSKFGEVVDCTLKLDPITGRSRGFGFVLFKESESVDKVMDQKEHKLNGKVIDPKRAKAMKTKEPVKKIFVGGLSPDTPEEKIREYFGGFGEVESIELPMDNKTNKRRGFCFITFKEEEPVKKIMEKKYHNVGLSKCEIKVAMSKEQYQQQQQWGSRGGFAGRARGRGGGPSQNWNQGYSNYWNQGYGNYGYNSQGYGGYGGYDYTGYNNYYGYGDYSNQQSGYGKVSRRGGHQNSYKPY
UniProt P22626: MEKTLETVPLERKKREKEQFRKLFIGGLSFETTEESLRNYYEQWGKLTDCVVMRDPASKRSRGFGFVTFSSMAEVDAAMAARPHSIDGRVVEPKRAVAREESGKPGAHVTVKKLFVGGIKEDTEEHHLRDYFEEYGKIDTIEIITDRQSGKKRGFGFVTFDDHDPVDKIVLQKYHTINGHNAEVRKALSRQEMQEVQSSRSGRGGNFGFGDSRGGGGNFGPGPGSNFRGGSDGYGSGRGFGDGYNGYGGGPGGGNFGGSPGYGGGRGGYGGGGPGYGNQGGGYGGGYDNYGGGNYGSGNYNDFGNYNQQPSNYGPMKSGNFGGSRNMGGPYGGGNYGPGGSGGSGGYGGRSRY
UniProt Q6DN03, whole entry, looked up: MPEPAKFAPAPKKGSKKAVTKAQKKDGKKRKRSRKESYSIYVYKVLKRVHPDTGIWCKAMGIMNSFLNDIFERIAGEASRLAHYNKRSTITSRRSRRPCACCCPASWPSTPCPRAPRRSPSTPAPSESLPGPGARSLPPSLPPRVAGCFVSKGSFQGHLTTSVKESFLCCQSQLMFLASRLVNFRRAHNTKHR
UniProt Q7LGA3: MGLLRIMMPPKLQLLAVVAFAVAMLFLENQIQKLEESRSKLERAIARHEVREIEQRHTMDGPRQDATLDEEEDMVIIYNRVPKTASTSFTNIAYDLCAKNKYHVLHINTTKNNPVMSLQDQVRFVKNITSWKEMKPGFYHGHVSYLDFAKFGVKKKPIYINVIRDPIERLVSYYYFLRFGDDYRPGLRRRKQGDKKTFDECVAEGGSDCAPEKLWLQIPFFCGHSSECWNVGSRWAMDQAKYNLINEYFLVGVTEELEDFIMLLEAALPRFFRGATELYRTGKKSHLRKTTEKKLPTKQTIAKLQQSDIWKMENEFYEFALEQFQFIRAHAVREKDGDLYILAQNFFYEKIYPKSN
UniProt P48723: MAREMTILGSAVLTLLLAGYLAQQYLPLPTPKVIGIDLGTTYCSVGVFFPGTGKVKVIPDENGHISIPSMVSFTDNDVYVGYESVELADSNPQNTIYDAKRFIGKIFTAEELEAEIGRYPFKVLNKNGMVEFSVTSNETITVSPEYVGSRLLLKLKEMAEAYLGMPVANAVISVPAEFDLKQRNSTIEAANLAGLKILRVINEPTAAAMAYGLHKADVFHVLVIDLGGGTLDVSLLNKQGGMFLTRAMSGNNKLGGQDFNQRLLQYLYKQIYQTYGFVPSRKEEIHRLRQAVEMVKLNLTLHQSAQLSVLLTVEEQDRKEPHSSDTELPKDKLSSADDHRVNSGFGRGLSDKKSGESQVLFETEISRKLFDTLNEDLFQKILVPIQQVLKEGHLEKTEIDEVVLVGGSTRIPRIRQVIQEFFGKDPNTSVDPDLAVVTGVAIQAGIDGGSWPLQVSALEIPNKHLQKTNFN
UniProt P35914: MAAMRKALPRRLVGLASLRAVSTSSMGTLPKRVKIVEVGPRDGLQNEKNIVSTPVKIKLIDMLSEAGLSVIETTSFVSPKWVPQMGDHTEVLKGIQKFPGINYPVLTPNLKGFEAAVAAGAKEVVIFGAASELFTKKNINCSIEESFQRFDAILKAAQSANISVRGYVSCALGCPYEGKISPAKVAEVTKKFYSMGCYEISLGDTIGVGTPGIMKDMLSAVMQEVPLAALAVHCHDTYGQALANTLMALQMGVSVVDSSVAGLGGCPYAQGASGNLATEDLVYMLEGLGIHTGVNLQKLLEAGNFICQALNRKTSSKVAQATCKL
UniProt Q9Y5Z4: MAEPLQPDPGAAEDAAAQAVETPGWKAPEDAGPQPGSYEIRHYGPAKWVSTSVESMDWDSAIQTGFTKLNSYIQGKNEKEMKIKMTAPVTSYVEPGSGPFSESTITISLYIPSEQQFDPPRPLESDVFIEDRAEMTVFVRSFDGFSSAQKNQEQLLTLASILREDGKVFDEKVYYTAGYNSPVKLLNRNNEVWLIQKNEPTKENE
UniProt Q9BUJ2: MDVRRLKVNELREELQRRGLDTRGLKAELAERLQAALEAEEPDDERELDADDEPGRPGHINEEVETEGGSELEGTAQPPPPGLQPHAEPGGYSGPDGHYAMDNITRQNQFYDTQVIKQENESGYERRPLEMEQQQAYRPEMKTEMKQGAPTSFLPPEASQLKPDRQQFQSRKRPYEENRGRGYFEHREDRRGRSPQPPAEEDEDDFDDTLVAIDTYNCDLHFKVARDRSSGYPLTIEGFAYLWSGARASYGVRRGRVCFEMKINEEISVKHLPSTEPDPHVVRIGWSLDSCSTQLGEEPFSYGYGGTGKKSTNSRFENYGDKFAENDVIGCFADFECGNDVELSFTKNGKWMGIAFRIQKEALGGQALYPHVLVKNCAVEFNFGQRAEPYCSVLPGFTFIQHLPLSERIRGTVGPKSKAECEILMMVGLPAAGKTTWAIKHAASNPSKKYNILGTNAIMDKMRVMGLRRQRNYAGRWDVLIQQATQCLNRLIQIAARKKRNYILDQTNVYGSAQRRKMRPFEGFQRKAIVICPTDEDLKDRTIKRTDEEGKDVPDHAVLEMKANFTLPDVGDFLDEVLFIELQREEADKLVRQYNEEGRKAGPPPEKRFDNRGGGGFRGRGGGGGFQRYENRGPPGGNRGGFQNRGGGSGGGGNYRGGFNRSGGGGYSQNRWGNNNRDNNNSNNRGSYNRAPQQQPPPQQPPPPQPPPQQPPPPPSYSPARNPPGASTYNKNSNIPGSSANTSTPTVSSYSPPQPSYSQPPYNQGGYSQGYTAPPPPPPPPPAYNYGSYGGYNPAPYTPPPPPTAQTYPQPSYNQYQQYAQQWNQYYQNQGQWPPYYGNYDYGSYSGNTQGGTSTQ
UniProt Q3SXM5: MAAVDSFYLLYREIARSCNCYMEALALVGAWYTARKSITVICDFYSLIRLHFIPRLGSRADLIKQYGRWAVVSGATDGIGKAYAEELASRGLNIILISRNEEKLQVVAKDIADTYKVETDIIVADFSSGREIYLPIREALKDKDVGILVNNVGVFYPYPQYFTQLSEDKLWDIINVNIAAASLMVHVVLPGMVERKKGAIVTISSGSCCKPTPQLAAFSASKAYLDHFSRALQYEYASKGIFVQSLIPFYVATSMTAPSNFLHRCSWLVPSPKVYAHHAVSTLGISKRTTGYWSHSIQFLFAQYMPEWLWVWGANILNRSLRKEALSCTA
UniProt Q9NWT6: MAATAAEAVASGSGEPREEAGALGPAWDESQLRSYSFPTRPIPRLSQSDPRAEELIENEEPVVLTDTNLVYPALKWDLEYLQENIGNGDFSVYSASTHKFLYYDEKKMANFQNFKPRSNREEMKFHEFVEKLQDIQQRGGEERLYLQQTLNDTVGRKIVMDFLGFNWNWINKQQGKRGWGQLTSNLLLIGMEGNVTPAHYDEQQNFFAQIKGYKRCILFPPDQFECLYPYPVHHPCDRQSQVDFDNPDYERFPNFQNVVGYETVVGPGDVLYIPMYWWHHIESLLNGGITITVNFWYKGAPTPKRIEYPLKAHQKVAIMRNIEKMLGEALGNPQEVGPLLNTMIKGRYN
UniProt Q03014: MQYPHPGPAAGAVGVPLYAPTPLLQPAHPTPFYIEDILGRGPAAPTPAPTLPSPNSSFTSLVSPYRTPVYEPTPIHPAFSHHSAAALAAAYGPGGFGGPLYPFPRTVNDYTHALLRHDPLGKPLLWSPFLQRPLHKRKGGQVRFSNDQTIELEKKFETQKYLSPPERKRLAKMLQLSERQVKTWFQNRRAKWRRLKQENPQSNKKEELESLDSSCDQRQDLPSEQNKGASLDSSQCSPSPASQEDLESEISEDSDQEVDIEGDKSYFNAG
UniProt Q14527: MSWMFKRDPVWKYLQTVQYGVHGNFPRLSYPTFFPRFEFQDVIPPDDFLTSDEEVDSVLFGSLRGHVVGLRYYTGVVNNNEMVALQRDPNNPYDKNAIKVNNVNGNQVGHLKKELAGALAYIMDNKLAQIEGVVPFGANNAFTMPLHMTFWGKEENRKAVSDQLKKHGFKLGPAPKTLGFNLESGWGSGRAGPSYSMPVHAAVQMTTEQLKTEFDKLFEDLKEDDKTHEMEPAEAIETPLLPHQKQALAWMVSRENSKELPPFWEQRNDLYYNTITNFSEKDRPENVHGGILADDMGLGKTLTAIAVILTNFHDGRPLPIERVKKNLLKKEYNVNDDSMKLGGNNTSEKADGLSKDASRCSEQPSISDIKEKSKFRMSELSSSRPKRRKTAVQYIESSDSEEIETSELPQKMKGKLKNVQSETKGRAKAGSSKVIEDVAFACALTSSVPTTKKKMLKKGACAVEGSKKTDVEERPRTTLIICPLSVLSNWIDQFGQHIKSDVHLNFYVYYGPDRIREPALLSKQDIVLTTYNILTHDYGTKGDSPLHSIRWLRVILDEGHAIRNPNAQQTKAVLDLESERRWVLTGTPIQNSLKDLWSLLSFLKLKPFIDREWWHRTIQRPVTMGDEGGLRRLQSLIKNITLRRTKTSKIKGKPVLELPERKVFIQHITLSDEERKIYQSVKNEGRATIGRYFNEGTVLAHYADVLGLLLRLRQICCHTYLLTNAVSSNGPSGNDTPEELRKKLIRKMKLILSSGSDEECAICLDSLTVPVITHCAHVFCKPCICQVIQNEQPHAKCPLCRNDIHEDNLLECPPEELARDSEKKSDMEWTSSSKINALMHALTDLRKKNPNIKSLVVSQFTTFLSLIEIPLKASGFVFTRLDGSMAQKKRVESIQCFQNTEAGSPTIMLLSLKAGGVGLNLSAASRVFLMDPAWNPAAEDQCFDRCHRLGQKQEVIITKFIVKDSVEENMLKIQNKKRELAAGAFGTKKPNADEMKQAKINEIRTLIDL

Key:
Assay in all cases: log2 fold change, soluble protein after heating vs DMSO (PISA); higher = thermal stabilisation; K562 lysate, 10 uM; active = over 0.2 and 3.5 SD of the protein, either way, in both replicates (recomputed)
[1] = compound: CS(=O)(=O)CCNCc1ccc(-c2ccc3ncnc(Nc4ccc(OCc5cccc(F)c5)c(Cl)c4)c3c2)o1 [lapatinib]
Procedure, shortened: (§1)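 A 30 min treatment with 10 μM compound was applied to crude K562 extract at 1 mg/mL protein in PBS pH 7.4 with 1 mM MgCl2. Heating for 3 min spanned 48°C-58°C, after which aliquots were pooled, adjusted to 0.5% NP-40 at 4°C and spun at 21,000xg for 90 min. TMTpro 16plex LC-MS/MS of the supernatant, with channel sums equalised, gave values recorded as log-two fold change in thermal stability against solvent controls, from duplicates.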

[2] = compound: CS(=O)(=O)N1CCN(Cc2cc3nc(-c4cccc5[nH]ncc45)nc(N4CCOCC4)c3s2)CC1 [pictilisib]
Procedure, shortened: as §1

[3] = compound: C[C@@H](Oc1cc(-c2cnn(C3CCNCC3)c2)cnc1N)c1c(Cl)ccc(F)c1Cl [crizotinib]
Procedure, shortened: as §1

[4] = compound: C[C@H](C1=CC=C(C=C1)C(=O)NC2=C3C=CNC3=NC=C2)N
Procedure, shortened: as §1

[5] = compound: C[C@H](Nc1ncnc2nc[nH]c12)c1cc2cccc(Cl)c2c(=O)n1-c1ccccc1 [duvelisib]
Procedure, shortened: as §1

[6] = compound: Cc1cc(Nc2cc(CN3CCOCC3)c3nc(C)c(Cc4ccc(Cl)cc4F)n3n2)n[nH]1 [gandotinib]
Procedure, shortened: as §1

[7] = compound: Cc1cc(Nc2cc(N3CCN(C)CC3)nc(Sc3ccc(NC(=O)C4CC4)cc3)n2)n[nH]1 [tozasertib]
Procedure, shortened: as §1

[8] = compound: Cc1ccc(-n2nc(C(C)(C)C)cc2NC(=O)Nc2ccc(OCCN3CCOCC3)c3ccccc23)cc1 [doramapimod]
Procedure, shortened: as §1

[9] = compound: Cc1ccc(NC(=O)c2ccc(CN3CC[C@H](N(C)C)C3)c(C(F)(F)F)c2)cc1Nc1nccc(-c2cncnc2)n1 [bafetinib]
Procedure, shortened: as §1

[10] = compound: Cc1cccc(CC(=O)N2CCc3c2ccc(-c2cn(C)c4ncnc(N)c24)c3F)n1
Procedure, shortened: as §1

[11] = compound: Cc1cn(-c2cc(NC(=O)c3ccc(C)c(Nc4nccc(-c5cccnc5)n4)c3)cc(C(F)(F)F)c2)cn1 [nilotinib]
Procedure, shortened: as §1

[12] = compound: Cc1nc(Nc2n[nH]c3c2CN(C(=O)N[C@H](CN(C)C)c2ccccc2)C3(C)C)c2sccc2n1
Procedure, shortened: as §1

[13] = compound: Cc1nc(Nc2ncc(C(=O)Nc3c(C)cccc3Cl)s2)cc(N2CCN(CCO)CC2)n1 [dasatinib]
Procedure, shortened: as §1

[14] = compound: Cc1ncc(-c2ccnc(Nc3ccc(S(C)(=O)=O)cc3)n2)n1C(C)C
Procedure, shortened: as §1

[15] = compound: Cn1cc(-c2ccc3c(c2)CCN3C(=O)Cc2cccc(C(F)(F)F)c2)c2c(N)ncnc21
Procedure, shortened: as §1

[16] = compound: Cn1cc(CNCC2CCN(c3ncc(C(=O)NO)cn3)CC2)c2ccccc21 [quisinostat]
Procedure, shortened: as §1

[17] = compound: Cn1cncc1[C@@](N)(c1ccc(Cl)cc1)c1ccc2c(c1)c(-c1cccc(Cl)c1)cc(=O)n2C [tipifarnib]
Procedure, shortened: as §1

[18] = compound: NC(=O)Nc1cc(-c2cccc(F)c2)sc1C(=O)N[C@H]1CCCNC1
Procedure, shortened: as §1

[19] = compound: NC(=O)c1cnc(N[C@@H]2CCCC[C@@H]2N)nc1Nc1cccc(-n2nccn2)c1
Procedure, shortened: as §1

[20] = compound: NC1(c2ccc(-c3nc4ccn5c(=O)[nH]nc5c4cc3-c3ccccc3)cc2)CCC1
Procedure, shortened: as §1

Target | log2 fold change [1] | log2 fold change [2] | log2 fold change [3] | log2 fold change [4] | log2 fold change [5] | log2 fold change [6] | log2 fold change [7] | log2 fold change [8] | log2 fold change [9] | log2 fold change [10] | log2 fold change [11] | log2 fold change [12] | log2 fold change [13] | log2 fold change [14] | log2 fold change [15] | log2 fold change [16] | log2 fold change [17] | log2 fold change [18] | log2 fold change [19] | log2 fold change [20]
HSP90AB1 (UniProt P08238) | inactive: 0.013 | inactive: -0.008 | inactive: 0.043 | inactive: 0.097 | inactive: -0.021 | inactive: -0.072 | inactive: -0.016 | inactive: -0.034 | inactive: 0.031 | inactive: -0.064 | inactive: 0 | inactive: 0.003 | inactive: 0.01 | inactive: 0.005 | inactive: -0.002 | inactive: 0.083 | inactive: 0.012 | inactive: -0.007 | inactive: -0.014 | inactive: 0.008
HNRNPD isoform 3 (UniProt Q14103) | inactive: -0.062 | inactive: 0.126 | inactive: -0.07 | inactive: -0.08 | inactive: 0.043 | inactive: 0.094 | inactive: -0.078 | inactive: 0.045 | inactive: 0.166 | inactive: 0.033 | inactive: 0.012 | inactive: -0.073 | inactive: 0.017 | inactive: 0.017 | inactive: 0.065 | inactive: 0.005 | inactive: -0.002 | inactive: 0.021 | inactive: 0.028 | inactive: -0.033
HNRNPA2B1 (UniProt P22626) | inactive: 0.015 | inactive: 0.015 | inactive: 0.013 | inactive: -0.015 | inactive: 0.004 | inactive: -0.002 | inactive: 0.019 | inactive: -0.011 | inactive: 0.011 | inactive: 0.025 | inactive: -0.055 | inactive: -0.008 | inactive: 0.018 | inactive: -0.003 | inactive: 0.009 | inactive: 0.044 | inactive: -0.012 | inactive: -0.014 | inactive: -0.009 | inactive: -0.034
HIST2H3A (UniProt Q71DI3) | inactive: -0.032 | inactive: -0.003 | inactive: -0.003 | inactive: -0.015 | inactive: -0.056 | inactive: 0.001 | inactive: -0.02 | inactive: 0.024 | inactive: -0.046 | inactive: -0.022 | inactive: -0.006 | inactive: -0.02 | inactive: 0.025 | inactive: -0.026 | inactive: -0.023 | inactive: -0.024 | inactive: 0.024 | inactive: -0.02 | inactive: 0.017 | inactive: 0.002
HELB (UniProt Q8NG08) | inactive: 0.115 | inactive: -0.014 | inactive: -0.004 | inactive: -0.048 | inactive: 0.022 | inactive: -0.031 | inactive: 0.009 | inactive: -0.009 | inactive: -0.044 | inactive: 0.103 | inactive: 0.012 | inactive: -0.031 | inactive: 0.027 | inactive: 0.016 | inactive: 0.035 | inactive: -0.029 | inactive: -0.02 | inactive: 0.032 | inactive: 0.082 | inactive: 0.067
HIST2H2BC (UniProt Q6DN03) | inactive: -0.024 | inactive: 0.02 | inactive: -0.024 | inactive: 0.183 | inactive: -0.083 | inactive: -0.054 | inactive: 0.019 | inactive: 0.007 | inactive: 0.018 | inactive: -0.019 | inactive: 0.003 | inactive: -0.021 | inactive: 0.051 | inactive: -0.01 | inactive: -0.079 | inactive: -0.014 | inactive: 0.037 | inactive: 0.016 | inactive: -0.01 | inactive: 0.058
HS2ST1 (UniProt Q7LGA3) | inactive: 0.045 | inactive: 0.022 | inactive: -0.007 | inactive: 0.003 | inactive: 0.01 | inactive: -0.008 | inactive: -0.05 | inactive: 0.016 | inactive: 0.059 | inactive: 0.023 | inactive: 0.025 | inactive: 0.1 | inactive: 0.034 | inactive: -0.063 | inactive: -0.039 | inactive: 0.075 | inactive: -0.021 | inactive: 0.01 | inactive: -0.004 | inactive: 0.016
HSPA13 (UniProt P48723) | inactive: -0.013 | inactive: -0.007 | inactive: 0.007 | inactive: 0.016 | inactive: -0.031 | inactive: -0.049 | inactive: 0 | inactive: 0.024 | inactive: -0.032 | inactive: 0 | inactive: 0.025 | inactive: -0.038 | inactive: -0.001 | inactive: -0.045 | inactive: 0.065 | inactive: -0.027 | inactive: -0.02 | inactive: 0.051 | inactive: 0.016 | inactive: 0.036
HMGCL (UniProt P35914) | inactive: -0.005 | inactive: -0.029 | inactive: 0.012 | inactive: 0.033 | inactive: 0.002 | inactive: -0.029 | inactive: 0.026 | inactive: 0.008 | inactive: -0.016 | inactive: -0.031 | inactive: 0.011 | inactive: -0.041 | inactive: 0.029 | inactive: 0.023 | inactive: 0.02 | inactive: -0.017 | inactive: -0.013 | inactive: 0.018 | inactive: -0.033 | inactive: 0.015
HEBP2 (UniProt Q9Y5Z4) | inactive: -0.002 | inactive: 0.005 | inactive: 0.04 | inactive: -0.011 | inactive: 0.018 | inactive: 0.03 | inactive: 0.024 | inactive: -0.004 | inactive: 0.019 | inactive: -0.017 | inactive: 0.009 | inactive: -0.028 | inactive: 0.01 | inactive: -0.008 | inactive: 0.01 | inactive: 0.021 | inactive: 0.026 | inactive: -0.014 | inactive: 0.002 | inactive: -0.009
HNRNPUL1 (UniProt Q9BUJ2) | inactive: -0.008 | inactive: -0.05 | inactive: 0.043 | inactive: 0.005 | inactive: 0.01 | inactive: -0.013 | inactive: 0.012 | inactive: -0.107 | inactive: 0.051 | inactive: -0.023 | active: -0.291 | inactive: 0.018 | inactive: -0.012 | inactive: 0.006 | inactive: 0.01 | inactive: 0.015 | inactive: 0.019 | inactive: 0.045 | inactive: -0.003 | inactive: -0.009
HSDL1 (UniProt Q3SXM5) | inactive: -0.017 | inactive: -0.008 | inactive: -0.042 | inactive: -0.224 | inactive: -0.007 | inactive: 0.094 | inactive: -0.041 | inactive: 0.014 | inactive: -0.031 | inactive: 0.023 | inactive: 0.071 | inactive: 0.012 | inactive: 0.009 | inactive: 0.096 | inactive: -0.034 | inactive: -0.01 | inactive: -0.026 | inactive: -0.013 | inactive: -0.002 | inactive: 0.024
HMGN2 (UniProt P05204) | inactive: -0.077 | inactive: 0.01 | inactive: 0.157 | inactive: 0.013 | inactive: -0.015 | inactive: 0.022 | inactive: -0.072 | inactive: -0.091 | inactive: -0.011 | inactive: -0.029 | inactive: -0.019 | inactive: 0.023 | inactive: -0.005 | inactive: -0.018 | inactive: -0.019 | inactive: 0.081 | inactive: 0.009 | inactive: -0.006 | inactive: 0.083 | inactive: 0.006
HIF1AN (UniProt Q9NWT6) | inactive: 0 | inactive: -0.065 | inactive: 0.042 | inactive: -0.043 | inactive: -0.054 | inactive: 0.057 | inactive: 0.001 | inactive: 0.153 | inactive: -0.141 | inactive: 0.018 | inactive: -0.018 | inactive: -0.001 | inactive: -0.018 | inactive: -0.013 | inactive: -0.026 | inactive: -0.165 | inactive: -0.039 | inactive: 0.114 | inactive: -0.002 | inactive: 0.019
HHEX (UniProt Q03014) | inactive: -0.083 | inactive: 0.053 | inactive: 0.111 | inactive: 0.031 | inactive: -0.06 | inactive: 0.065 | inactive: -0.223 | inactive: 0.137 | inactive: -0.132 | inactive: -0.035 | inactive: -0.129 | inactive: 0.006 | inactive: -0.071 | inactive: -0.018 | inactive: -0.043 | inactive: -0.047 | inactive: -0.172 | inactive: 0.051 | inactive: 0.034 | inactive: 0.04
HLTF (UniProt Q14527) | inactive: 0.045 | inactive: 0.061 | inactive: -0.019 | inactive: -0.063 | inactive: -0.05 | inactive: -0.021 | inactive: 0.004 | inactive: -0.007 | inactive: -0.087 | inactive: 0.035 | inactive: -0.039 | inactive: 0.004 | inactive: -0.041 | inactive: -0.051 | inactive: 0.05 | inactive: 0.021 | inactive: -0.148 | inactive: 0.102 | inactive: 0.055 | inactive: -0.085

2 consecutive entries already listed:
Target | log2 fold change [1] | log2 fold change [2] | log2 fold change [3] | log2 fold change [4] | log2 fold change [5] | log2 fold change [6] | log2 fold change [7] | log2 fold change [8] | log2 fold change [9] | log2 fold change [10] | log2 fold change [11] | log2 fold change [12] | log2 fold change [13] | log2 fold change [14] | log2 fold change [15] | log2 fold change [16] | log2 fold change [17] | log2 fold change [18] | log2 fold change [19] | log2 fold change [20]
HMGCL (UniProt P35914) | inactive: -0.005 | inactive: -0.029 | inactive: 0.012 | inactive: 0.033 | inactive: 0.002 | inactive: -0.029 | inactive: 0.026 | inactive: 0.008 | inactive: -0.016 | inactive: -0.031 | inactive: 0.011 | inactive: -0.041 | inactive: 0.029 | inactive: 0.023 | inactive: 0.02 | inactive: -0.017 | inactive: -0.013 | inactive: 0.018 | inactive: -0.033 | inactive: 0.015
HEBP2 (UniProt Q9Y5Z4) | inactive: -0.002 | inactive: 0.005 | inactive: 0.04 | inactive: -0.011 | inactive: 0.018 | inactive: 0.03 | inactive: 0.024 | inactive: -0.004 | inactive: 0.019 | inactive: -0.017 | inactive: 0.009 | inactive: -0.028 | inactive: 0.01 | inactive: -0.008 | inactive: 0.01 | inactive: 0.021 | inactive: 0.026 | inactive: -0.014 | inactive: 0.002 | inactive: -0.009
